# Reference: the supplement of paper PMC9135407
# “And” between values parts separate entries of the source, which are not always exact repeats. Equal entries are not always repeated. Structures can show the parent of a compound that is named as a salt. ± gives the standard deviation of the averaged measurements. The list shows a part of the results. Plates or batches differ in their baseline, so values are only roughly comparable.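 Culture-activated primary human stellate myofibroblasts, where regained lipid droplets signal inactivation. Value: share of Hoechst-counted cells above a per-plate Bodipy cutoff, in duplicate wells, with DMSO negative and nortriptyline positive controls on each plate. Hits: a control-normalized score above the plate's top-tenth-percentile nortriptyline wells, or one of a plate's three best wells. Final well concentrations are not given.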
# Test system: primary human hepatic stellate cells (donor 1)
# Assay: percent Bodipy-positive cells; higher = more lipid droplet accumulation
# Settings: 48 h
# [1] = library stock concentration: 10 mM
# [2] = library stock concentration: 2 mM
# [3] = library stock concentration: 3.33 mM
# [4] = library stock concentration: 1 mM
# [5] = library stock concentration: 6.4 mM
smiles,measurement,setting,value
Oc1ccc(-c2c(-c3ccccc3)nn3c(C(F)(F)F)cc(C(F)(F)F)nc23)cc1,percent Bodipy-positive cells,[1],9.85 ± 8.7%
"COc1cc2ncnc(Nc3ccc(F)c(Cl)c3)c2cc1OCCCN1CCOCC1 [Gefitinib (ZD1839, Iressa) (2 mM)]",percent Bodipy-positive cells,[2],69.4 ± 9.7%
"COc1cc2ncnc(Nc3ccc(F)c(Cl)c3)c2cc1OCCCN1CCOCC1 [Gefitinib (ZD1839, Iressa) (10 mM)]",percent Bodipy-positive cells,[1],85.2 ± 12%
CC(C)NCC(O)c1ccc(O)c(O)c1 (centres undefined) [Isoproterenol hydrochloride],percent Bodipy-positive cells,library stock concentration: 8.1 mM,8.17 ± 3.6%
same,percent Bodipy-positive cells,[1],13.1% and 7.95%
CC(C)NCC(O)c1ccc(O)c(O)c1 (stereo not drawn) [S(+)-Isoproterenol (+)-bitartrate],percent Bodipy-positive cells,[1],47.3 ± 13%
CC(C)NCC(O)c1ccc(O)c(O)c1 (centres undefined),percent Bodipy-positive cells,[1],26 ± 1.4%
CC(C)NCC(O)c1ccc(O)c(O)c1 (stereo not drawn) [R(-)-Isoproterenol (+)-bitartrate],percent Bodipy-positive cells,[1],30.4 ± 4.7%
CC(C)NCC(O)c1ccc(O)c(O)c1 (centres undefined) [(?)-Isoproterenol hydrochloride],percent Bodipy-positive cells,[1],44.1 ± 5.3%
CC(C)NCC(O)c1ccc(O)c(O)c1 (centres undefined) [Isoprenaline HCl],percent Bodipy-positive cells,[3],4.45 ± 1.2%
same,percent Bodipy-positive cells,[1],7.68 ± 1.5%
CS(=O)(=O)N1CCN(Cc2cc3nc(-c4cccc5[nH]ncc45)nc(N4CCOCC4)c3s2)CC1,percent Bodipy-positive cells,library stock concentration: 80 uM,15.9 ± 5.1%
same,percent Bodipy-positive cells,library stock concentration: 400 uM,10.6% and 18.6%
same,percent Bodipy-positive cells,[2],19.2% and 32.2%
same,percent Bodipy-positive cells,[3],20.7 ± 0.49%
same,percent Bodipy-positive cells,[1],58.5% and 50.6%
CC(C)(C)NC(=O)[C@@H]1C[C@@H]2CCCC[C@@H]2CN1C[C@@H](O)[C@H](Cc1ccccc1)NC(=O)[C@H](CC(N)=O)NC(=O)c1ccc2ccccc2n1 [Saquinavir mesylate],percent Bodipy-positive cells,,10.5 ± 2.5%
CC(C)(C)NC(=O)[C@@H]1C[C@@H]2CCCC[C@@H]2CN1C[C@@H](O)[C@H](Cc1ccccc1)NC(=O)[C@H](CC(N)=O)NC(=O)c1ccc2ccccc2n1,percent Bodipy-positive cells,[1],37.1 ± 7.6%
COc1ccc2[nH]c([S@@+]([O-])Cc3ncc(C)c(OC)c3C)nc2c1 [Esomeprazole Sodium],percent Bodipy-positive cells,[3],5.66 ± 0.93%
same,percent Bodipy-positive cells,[1],12.8 ± 0.26%
COc1ccc2[nH]c([S@@+]([O-])Cc3ncc(C)c(OC)c3C)nc2c1 [Esomeprazole magnesium dihydrate],percent Bodipy-positive cells,[1],40.4 ± 2.2%
COc1ccc2[nH]c([S@@+]([O-])Cc3ncc(C)c(OC)c3C)nc2c1 [Esomeprazole potassium],percent Bodipy-positive cells,library stock concentration: 5.8 mM,11.1 ± 0.58%
Cc1cc(NC2CCCCC2)nc(-n2nc(C)cc2C)n1,percent Bodipy-positive cells,[1],43.2 ± 6.3%
NCCSSCCN [Cystamine dihydrochloride],percent Bodipy-positive cells,[1],42.8% and 40.1%
"CCCCC(C)(C)[C@H](O)/C=C/[C@H]1[C@H](O)CC(=O)[C@@H]1CC(=O)CCCCC(=O)O [16,16-dimethyl-6-keto Prostaglandin E1]",percent Bodipy-positive cells,[4],17.7 ± 1.9%
Nc1nc2c(ncn2COCCO)c(=O)[nH]1 [Aciclovir],percent Bodipy-positive cells,[3],5.405 ± 0.052%
same,percent Bodipy-positive cells,[1],12.6 ± 2.8%
Nc1nc2c(ncn2COCCO)c(=O)[nH]1 [Acycloguanosine],percent Bodipy-positive cells,library stock concentration: 8.9 mM,5.5 ± 0.43%
Nc1nc2c(ncn2COCCO)c(=O)[nH]1 [Acyclovir],percent Bodipy-positive cells,,21.1 ± 0.65%
Cc1ccccc1C(=O)c1ccc(Nc2ccc(Br)cc2N)cc1Cl,percent Bodipy-positive cells,[1],8.54 ± 1.7%
COc1ccc(C(=O)CC(=O)c2ccc(C(C)(C)C)cc2)cc1 [Avobenzone],percent Bodipy-positive cells,[3],9.67 ± 3.7%
same,percent Bodipy-positive cells,[5],10.3 ± 5.8%
same,percent Bodipy-positive cells,[1],16.9% and 40.3%
c1ccc(C(O[C@@H]2CCCN(CCc3ccc4c(c3)OCO4)C2)c2ccccc2)cc1 [Zamifenacin fumarate],percent Bodipy-positive cells,[1],21.4 ± 3.5%
CC(=O)OCC(=O)[C@@]1(O)[C@H](C)C[C@H]2[C@@H]3CCC4=CC(=O)C=C[C@]4(C)[C@@]3(F)[C@@H](O)C[C@@]21C [Dexamethasone acetate],percent Bodipy-positive cells,,17.7 ± 7.1%
same,percent Bodipy-positive cells,[1],9.22 ± 0.32%
COc1ncnc(NS(=O)(=O)c2ccc(N)cc2)c1OC [Sulfadoxine],percent Bodipy-positive cells,,11.4 ± 0.66%
same,percent Bodipy-positive cells,[5],7.49% and 1.9%
CCCCCCCC(=O)CC[C@@H]1[C@@H](C/C=C\CCCC(=O)O)[C@@H](O)C[C@H]1O [Unoprostone],percent Bodipy-positive cells,[4],14.5 ± 3.5%
CN1CCN(CC/C=C2\c3ccccc3Sc3ccc(S(=O)(=O)N(C)C)cc32)CC1 [Thiothixene],percent Bodipy-positive cells,library stock concentration: 4.5 mM,87.8 ± 2.1%
COc1c(N2C[C@@H]3CCCN[C@@H]3C2)c(F)cc2c(=O)c(C(=O)O)cn(C3CC3)c12,percent Bodipy-positive cells,[1],9.28 ± 0.52%
COc1c(N2C[C@@H]3CCCN[C@@H]3C2)c(F)cc2c(=O)c(C(=O)O)cn(C3CC3)c12 [Moxifloxacin HCl],percent Bodipy-positive cells,[3],12.8 ± 12%
same,percent Bodipy-positive cells,[1],13.6 ± 3.9%
COc1c(N2C[C@@H]3CCCN[C@@H]3C2)c(F)cc2c(=O)c(C(=O)O)cn(C3CC3)c12 [Moxifloxacin hydrochloride],percent Bodipy-positive cells,[1],51.3 ± 13%
COc1ccc(C(=O)c2ccccc2)c(O)c1 [Oxybenzone],percent Bodipy-positive cells,,9.79 ± 3%
same,percent Bodipy-positive cells,library stock concentration: 8.8 mM,4.59 ± 0.7%
same,percent Bodipy-positive cells,[1],16.8 ± 1.2%
CCCCC/C=C\C\C=C/C=C/C=C/[C@@H](SC[C@H](N)C(=O)NCC(=O)O)[C@@H](O)CCCC(=O)O [Leukotriene D4],percent Bodipy-positive cells,library stock concentration: 100 uM,6.67 ± 5.3%
Cl.Cl.O=S(=O)(NCCNC/C=C/c1ccc(Br)cc1)c1cccc2cnccc12 [H 89 dihydrochloride],percent Bodipy-positive cells,[1],77.5 ± 2.8%
Nc1nonc1C(=Nc1ccc(F)c(Cl)c1)NO,percent Bodipy-positive cells,[3],32.88 ± 0.038%
same,percent Bodipy-positive cells,[1],37 ± 1.2%
CCN(CC)CCOc1ccc2c(c1)C(=O)c1cc(OCCN(CC)CC)ccc1-2 [Tilorone],percent Bodipy-positive cells,library stock concentration: 4.9 mM,2.07 ± 0.58%
Cc1ccccc1-c1cccc(N2CCC(N3CCN(C)C(C)C3)CC2)c1 (centres undefined),percent Bodipy-positive cells,[1],96.34 ± 0.3%
Oc1ccc(Cn2cc[nH]c2=S)cc1 [1-(4-Hydroxybenzyl)imidazole-2-thiol],percent Bodipy-positive cells,[1],38.3 ± 2.1%
NCCCCCNCC12CC3CC(CC(C3)C1)C2 [IEM 1754 dihydrobroMide],percent Bodipy-positive cells,[3],22.7 ± 0.91%
same,percent Bodipy-positive cells,[1],63.7 ± 19%
O=C1CC(=O)c2c(Cl)c(Cl)c(Cl)c(Cl)c21,percent Bodipy-positive cells,[3],21.76 ± 0.028%
same,percent Bodipy-positive cells,[1],49.9 ± 11%
COc1ccccc1N1CCN(CCN(C(=O)c2ccc(F)cc2)c2ccccn2)CC1 [p-MPPF dihydrochloride],percent Bodipy-positive cells,[1],41.9 ± 8.5%

# Some of the entries so far, bar-delimited:
smiles | measurement | setting | value
CC(C)NCC(O)c1ccc(O)c(O)c1 (centres undefined) [(?)-Isoproterenol hydrochloride] | percent Bodipy-positive cells | [1] | 44.1 ± 5.3%
CC(C)NCC(O)c1ccc(O)c(O)c1 (centres undefined) [Isoprenaline HCl] | percent Bodipy-positive cells | [3] | 4.45 ± 1.2%
same | percent Bodipy-positive cells | [1] | 7.68 ± 1.5%
CS(=O)(=O)N1CCN(Cc2cc3nc(-c4cccc5[nH]ncc45)nc(N4CCOCC4)c3s2)CC1 | percent Bodipy-positive cells | library stock concentration: 80 uM | 15.9 ± 5.1%
same | percent Bodipy-positive cells | library stock concentration: 400 uM | 10.6% and 18.6%
same | percent Bodipy-positive cells | [2] | 19.2% and 32.2%
same | percent Bodipy-positive cells | [3] | 20.7 ± 0.49%
same | percent Bodipy-positive cells | [1] | 58.5% and 50.6%
CC(C)(C)NC(=O)[C@@H]1C[C@@H]2CCCC[C@@H]2CN1C[C@@H](O)[C@H](Cc1ccccc1)NC(=O)[C@H](CC(N)=O)NC(=O)c1ccc2ccccc2n1 [Saquinavir mesylate] | percent Bodipy-positive cells |  | 10.5 ± 2.5%
CC(C)(C)NC(=O)[C@@H]1C[C@@H]2CCCC[C@@H]2CN1C[C@@H](O)[C@H](Cc1ccccc1)NC(=O)[C@H](CC(N)=O)NC(=O)c1ccc2ccccc2n1 | percent Bodipy-positive cells | [1] | 37.1 ± 7.6%
COc1ccc2[nH]c([S@@+]([O-])Cc3ncc(C)c(OC)c3C)nc2c1 [Esomeprazole Sodium] | percent Bodipy-positive cells | [3] | 5.66 ± 0.93%
same | percent Bodipy-positive cells | [1] | 12.8 ± 0.26%
COc1ccc2[nH]c([S@@+]([O-])Cc3ncc(C)c(OC)c3C)nc2c1 [Esomeprazole magnesium dihydrate] | percent Bodipy-positive cells | [1] | 40.4 ± 2.2%
COc1ccc2[nH]c([S@@+]([O-])Cc3ncc(C)c(OC)c3C)nc2c1 [Esomeprazole potassium] | percent Bodipy-positive cells | library stock concentration: 5.8 mM | 11.1 ± 0.58%
